Data from publication PMC4019985, “Mitochondrial thiol oxidase Erv1: both shuttle cysteine residues are required for its function with distinct roles” (Biochemical Journal, 2014).
No constants are given. Whether binding was seen depends on the method and setting.

T1: Mia40^SPC, core domain Mia40c (amino acids 284-403) with the first cysteine of the CPC motif changed to serine (S. cerevisiae) (UniProt P36046)
T1 sequence: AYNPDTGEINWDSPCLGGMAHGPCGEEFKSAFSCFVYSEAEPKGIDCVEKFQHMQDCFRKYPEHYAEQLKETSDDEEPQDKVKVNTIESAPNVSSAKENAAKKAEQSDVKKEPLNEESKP

T2: Mia40^CPS, core domain Mia40c (amino acids 284-403) with the second cysteine of the CPC motif changed to serine (S. cerevisiae) (UniProt P36046)
T2 sequence: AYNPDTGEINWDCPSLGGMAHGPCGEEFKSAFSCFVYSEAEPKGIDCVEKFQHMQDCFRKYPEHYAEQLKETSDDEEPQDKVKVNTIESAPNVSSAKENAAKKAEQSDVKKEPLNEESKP


Columns and labels:
[1] = molecular target: T1, Mia40^SPC, core domain Mia40c (amino acids 284-403) with the first cysteine of the CPC motif changed to serine (S. cerevisiae); assay: condition: only under reducing conditions (sample buffer with 1 mM DTT); mixed disulfide trapping, non-reducing SDS/PAGE and Western blot; single cysteine mutants pre-treated with 2 mM TCEP, exchanged to buffer A, incubated at 5 uM each for 20 min at room temperature (stopped with 2.5 mM AMS, or 1 mM DTT as reducing control), or 50 uM Mia40 and 5 uM Erv1 over 10 min (stopped with 20 mM IAM); detected with an antibody against Erv1; both purified
[2] = molecular target: T2, Mia40^CPS, core domain Mia40c (amino acids 284-403) with the second cysteine of the CPC motif changed to serine (S. cerevisiae); assay: as above

Row | binding [1] | binding [2] | Binder
1 | no binding | no binding | Erv1^CXXS (Erv1C33S) (enzyme, S. cerevisiae, UniProt P27882 1-189, looked up, Erv1, S. cerevisiae, full length, second shuttle cysteine changed to serine) MKAIDKMTDNPPQEGLSGRKIIYDEDGKPCRSSNTLLDFQYVTGKISNGLKNLSSNGKLAGTGALTGEASELMPGSRTYRKVDPPDVEQLGRSSWTLLHSVAASYPAQPTDQQKGEMKQFLNIFSHIYPCNWCAKDFEKYIRENAPQVESREELGRWMCEAHNKVNKKLRKPKFDCNFWEKRWKDGWDE
2 | no binding | no binding | Erv1^SXXC (Erv1C30S) (enzyme, S. cerevisiae, UniProt P27882 1-189, looked up, Erv1, S. cerevisiae, full length, first shuttle cysteine changed to serine; Found as a tetramer (peak 1, yellow) and a dimer (peak 2, black, charge-transfer complex)) MKAIDKMTDNPPQEGLSGRKIIYDEDGKPSRSCNTLLDFQYVTGKISNGLKNLSSNGKLAGTGALTGEASELMPGSRTYRKVDPPDVEQLGRSSWTLLHSVAASYPAQPTDQQKGEMKQFLNIFSHIYPCNWCAKDFEKYIRENAPQVESREELGRWMCEAHNKVNKKLRKPKFDCNFWEKRWKDGWDE
